Drawing on publication PMC11324517 (Nature, 2024), this text covers binding for one substance.

For this assay, the target named is Δ-hDAT (human dopamine transporter lacking the N-terminal 56 residues, with the thermostabilising mutation I248Y) (human) (UniProt Q01959). The assay can be described thus: cryo-EM structure + SEC; detergent-solubilised, purified Δ-hDAT (digitonin/CHS, 50 mM HEPES pH 7.8, 200 mM NaCl, with MRS7292 and β-CFT); single-particle classifications and biochemical analysis (FSEC of the purified protein); both purified.

No constants are given. Whether binding was seen depends on the method and setting.

Take “Δ-hDAT (human dopamine transporter lacking the N-terminal 56 residues, with the thermostabilising mutation I248Y) (from UniProt Q01959 57-620)”: the binding result is reported as “no binding”.
